Laboratory results published in patent publication EP4810497A1, “ISOQUINOLINE DERIVATIVE, SYNTHESIS METHOD THEREFOR, AND USE THEREOF” (Harbin Gloria Pharmaceuticals Co., Ltd., priority 2023, dated 2025).
Some results were stated once for a whole list of compounds, not compound by compound.

Assays:
[1] = target: T1, Pgk1 (Homo sapiens, UniProt P00558); assay: Affinity for Pgk1 protein (Biacore T200 chip); assay type: binding
T1 sequence (P00558 1-417): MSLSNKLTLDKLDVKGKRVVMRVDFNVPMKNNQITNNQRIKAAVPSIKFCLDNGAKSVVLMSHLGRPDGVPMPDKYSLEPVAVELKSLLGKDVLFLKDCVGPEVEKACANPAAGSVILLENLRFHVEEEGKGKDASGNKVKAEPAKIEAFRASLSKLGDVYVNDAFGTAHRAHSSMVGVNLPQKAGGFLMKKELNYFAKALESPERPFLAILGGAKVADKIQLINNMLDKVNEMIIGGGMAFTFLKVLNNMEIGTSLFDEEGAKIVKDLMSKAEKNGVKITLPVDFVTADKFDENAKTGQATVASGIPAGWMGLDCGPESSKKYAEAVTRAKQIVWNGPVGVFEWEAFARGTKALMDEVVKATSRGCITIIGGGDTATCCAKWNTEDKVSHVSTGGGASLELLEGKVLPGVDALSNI
Procedure: Purified Pgk1 protein (with a concentration of 1 mg/mL) was immobilized on a Biacore T200 chip. […] The obtained curves can calculate parameters such as affinity and Rmax.

[2] = tested on: Wild-type mice (C57BL/6); assay: Blood glucose in normal mice in vivo; details: 0.1 mg/kg intraperitoneally, fasted 6 hours after administration
[3] = tested on: SK-N-SH cells; assay: Cellular ATP levels (Promega ATP assay kit); assay type: cell-based, human; details: 10 µM, 48 hours, 5% O2, untreated control defined as 1 (FIG. 1)
Procedure: Human Neuroblastoma Cell Line (SK-N-SH) is a human-derived neuroblastoma cell line. SK-N-SH cells were seeded in a 6-well plate at a density of 6×10^4 cells per well. The cells were cultured for 12 hours under 5% O2. Various drugs at a concentration of 10 µM were added. After 48 hours, the cells were harvested. Celluar ATP levels were measured using the Promega ATP assay kit. The experiment was repeated 6 times to 10 times. The experimental results were illustrated in FIG. 1. […] T1 to T11 were the experimental groups.
SK-N-SH cells were seeded in a 6-well plate at a density of 6×10^4 per well. Cells were cultured for 12 hours under 5% O2, and the drug was added. Cells were harvested after 48 hours. Cellular ATP levels were measured using a Promega ATP assay kit. The experiment was repeated 5 times to 7 times.

In the case of `Nc1nc(N2CCN(C(=O)[C@H]3CCCO3)CC2)cc2cc3c(cc12)OCO3` [Compound T1], the “affinity for Pgk1 protein (in words)” value [1] is reported as “showed affinity for Pgk1 protein”, the “hypoglycemic effect (blood glucose)” value [2] is reported as “significant hypoglycemic effect” and the “activity in increasing cellular ATP” value [3] is reported as “exhibited an activity in increasing cellular ATP”.
In the case of `Nc1nc(N2CCN(C(=O)[C@@H]3CCCO3)CC2)cc2cc3c(cc12)OCO3` [Compound T2], the “affinity for Pgk1 protein (in words)” value [1] is reported as “showed affinity for Pgk1 protein”, the “hypoglycemic effect (blood glucose)” value [2] is reported as “significant hypoglycemic effect” and the “activity in increasing cellular ATP” value [3] is reported as “exhibited an activity in increasing cellular ATP”.
`CC1Oc2cc3cc(N4CCN(C(=O)[C@H]5CCCO5)CC4)nc(N)c3cc2O1` (stereo partly drawn) [Compound T3] was tested, and the “affinity for Pgk1 protein (in words)” value [1] was “showed affinity for Pgk1 protein”, the “hypoglycemic effect (blood glucose)” value [2] was “significant hypoglycemic effect” and the “activity in increasing cellular ATP” value [3] was “exhibited an activity in increasing cellular ATP”.
With `CC1(C)Oc2cc3cc(N4CCN(C(=O)[C@H]5CCCO5)CC4)nc(N)c3cc2O1` [Compound T4] the “affinity for Pgk1 protein (in words)” value [1] was “showed affinity for Pgk1 protein”, the “hypoglycemic effect (blood glucose)” value [2] was “significant hypoglycemic effect” and the “activity in increasing cellular ATP” value [3] was “exhibited an activity in increasing cellular ATP”.
For `Nc1nc(N2CCN(C(=O)[C@H]3CCCO3)CC2)cc2cc3c(cc12)CCO3` [Compound T5], the “affinity for Pgk1 protein (in words)” value [1] was “showed affinity for Pgk1 protein”, the “hypoglycemic effect (blood glucose)” value [2] was “significant hypoglycemic effect” and the “activity in increasing cellular ATP” value [3] was “exhibited an activity in increasing cellular ATP”.
For `Nc1nc(N2CCN(C(=O)[C@H]3CCCO3)CC2)cc2cc3c(cc12)OCC3` [Compound T6], the “affinity for Pgk1 protein (in words)” value [1] was “showed affinity for Pgk1 protein”, the “hypoglycemic effect (blood glucose)” value [2] was “significant hypoglycemic effect” and the “activity in increasing cellular ATP” value [3] was “exhibited an activity in increasing cellular ATP”.
In the case of `Nc1nc(N2CCN(C(=O)C3CCCC3)CC2)cc2cc3c(cc12)OCO3` [Compound T7], the “affinity for Pgk1 protein (in words)” value [1] is reported as “showed affinity for Pgk1 protein”, the “hypoglycemic effect (blood glucose)” value [2] is reported as “significant hypoglycemic effect” and the “activity in increasing cellular ATP” value [3] is reported as “exhibited an activity in increasing cellular ATP”.
`Nc1nc(N2CCN(C(=O)[C@H]3CCCN3)CC2)cc2cc3c(cc12)OCO3` [Compound T8] was tested, and the “affinity for Pgk1 protein (in words)” value [1] was “showed affinity for Pgk1 protein”, the “hypoglycemic effect (blood glucose)” value [2] was “significant hypoglycemic effect” and the “activity in increasing cellular ATP” value [3] was “exhibited an activity in increasing cellular ATP”.
With `Nc1nc(N2CCN(C(=O)[C@@H]3CCCN3)CC2)cc2cc3c(cc12)OCO3` [Compound T9] the “affinity for Pgk1 protein (in words)” value [1] was “showed affinity for Pgk1 protein”, the “hypoglycemic effect (blood glucose)” value [2] was “significant hypoglycemic effect” and the “activity in increasing cellular ATP” value [3] was “exhibited an activity in increasing cellular ATP”.
